US20040151715A1 (SCHERING, published 2004)
Results are given in words; binding and its absence hold for the method and conditions named. Binding seen in cells or lysates may run through a third protein. Some results given as binding are weak or reduced against the parent protein; the word gives no strength.

B1: human ADAM33 pro domain C179A/D183N (protein)
chain: LQGHIPGQPVTPHWVLDGQPWRTVSLEEPVSKPDMGLVALEAEGQELLLELEKNHRLLAPGYIETHYGPDGQPVVLAPNHTDHCHYQGRVRGFPDSWVVLCTCSGMSGLITLSRNASYYLRPWPPRGSKDFSTHEIFRMEQLLTWKGTAGHRNPGNKAGMTSLPGGPQSRGRR
B2: mouse ADAM33 pro domain (protein, UniProt Q923W9 30-204, looked up)
chain: RMFPGNAHGELVTPHWILEGRLWLKVTLEEPILKPDSVLVALEAEGQDLLLELEKKHKLLAPGYTETHYRPDGHPVVLSPNHTDHCQYHGRVRGFRESWVVLSTCSGMSGLIVLSSKVSYYLQPRTPGDTKDFPTHEIFRMEQLFTWRGVQRDKNSQYKAGMASLPHVPQSRVRR
B3: human ADAM33 pro domain (wild type) (protein)
chain: LQGHIPGQPVTPHWVLDGQPWRTVSLEEPVSKPDMGLVALEAEGQELLLELEKNHRLLAPGYIETHYGPDGQPVVLAPNHTDHCHYQGRVRGFPDSWVVLCTCSGMSGLITLSRNASYYLRPWPPRGSKDFSTHEIFRMEQLLTWKGTCGHRDPGNKAGMTSLPGGPQSRGRR
B4: human ADAM33 pro domain K176I/C179A (protein)
chain: LQGHIPGQPVTPHWVLDGQPWRTVSLEEPVSKPDMGLVALEAEGQELLLELEKNHRLLAPGYIETHYGPDGQPVVLAPNHTDHCHYQGRVRGFPDSWVVLCTCSGMSGLITLSRNASYYLRPWPPRGSKDFSTHEIFRMEQLLTWIGTAGHRDPGNKAGMTSLPGGPQSRGRR

Tests used:
[1] = target: T1, human ADAM33 catalytic domain (human, UniProt Q9BZ11 204-409); experiment: co-purification of the pro/CAT complex
T1 construct: Expressed in Drosophila S2 cells as pre/pro/cat with a C-terminal Ser-Gly-His6 tag and processed at RGRR203/EARR; also called CAT domain; protease domain
T1 sequence: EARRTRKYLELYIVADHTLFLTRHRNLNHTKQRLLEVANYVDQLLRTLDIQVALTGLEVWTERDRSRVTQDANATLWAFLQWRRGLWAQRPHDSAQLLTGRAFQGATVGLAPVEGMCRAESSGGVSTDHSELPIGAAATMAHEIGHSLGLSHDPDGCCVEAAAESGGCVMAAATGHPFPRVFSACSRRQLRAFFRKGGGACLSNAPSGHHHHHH

[2] = target: T2, mouse ADAM33 CAT domain (mouse) (UniProt Q923W9); experiment: co-purification of mouse ADAM33 pro and CAT from Drosophila S2 conditioned medium
T2 sequence (looked up): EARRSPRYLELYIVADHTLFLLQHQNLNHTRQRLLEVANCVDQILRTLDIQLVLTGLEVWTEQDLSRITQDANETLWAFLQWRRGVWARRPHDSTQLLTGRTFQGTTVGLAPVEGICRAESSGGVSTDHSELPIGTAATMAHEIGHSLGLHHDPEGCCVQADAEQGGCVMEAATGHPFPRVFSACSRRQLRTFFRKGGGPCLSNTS

[3] = target: T1, human ADAM33 catalytic domain; experiment: co-purification through chromatography; not separated by APMA, iodoacetamide or nonionic detergents

| Binder | binding [1] | further results |
| --- | --- | --- |
| B1 | binds | – |
| B2 | – | binding [2]: binds |
| B3 | – | binding [3]: binds |
| B4 | binds | – |
